Data published in article doi:10.1101/2023.12.18.572145.
These are yes or no findings as the source states them, for the method shown. Some binding calls cover weakened binding; strength is not graded here.

Amino acid sequences for entries named in this document (tags omitted). A change or cut given only in a name is not applied to a line headed by its entry. Residues count along the entry.
UniProt Q9BPX5, whole entry: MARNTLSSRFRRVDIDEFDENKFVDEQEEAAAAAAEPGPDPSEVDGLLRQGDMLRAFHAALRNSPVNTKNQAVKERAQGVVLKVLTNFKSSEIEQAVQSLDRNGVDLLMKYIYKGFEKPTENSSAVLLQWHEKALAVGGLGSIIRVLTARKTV
UniProt Q9BTE1, whole entry: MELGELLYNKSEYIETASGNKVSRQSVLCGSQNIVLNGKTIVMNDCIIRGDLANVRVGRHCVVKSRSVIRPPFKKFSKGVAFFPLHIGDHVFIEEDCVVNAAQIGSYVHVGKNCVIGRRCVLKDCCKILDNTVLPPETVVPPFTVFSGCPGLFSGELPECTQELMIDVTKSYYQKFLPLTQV
UniProt P19404, 33-249: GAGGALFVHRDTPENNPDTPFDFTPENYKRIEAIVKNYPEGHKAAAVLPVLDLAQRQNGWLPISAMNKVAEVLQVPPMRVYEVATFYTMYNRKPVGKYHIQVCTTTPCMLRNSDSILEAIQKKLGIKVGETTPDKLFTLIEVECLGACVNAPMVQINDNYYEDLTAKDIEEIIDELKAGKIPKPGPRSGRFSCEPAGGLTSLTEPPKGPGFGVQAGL

T1: recombinant PREPLs p.Ser559Ala, catalytically inactive (residues 90-727) (human), Q4J6C6
T1 chain: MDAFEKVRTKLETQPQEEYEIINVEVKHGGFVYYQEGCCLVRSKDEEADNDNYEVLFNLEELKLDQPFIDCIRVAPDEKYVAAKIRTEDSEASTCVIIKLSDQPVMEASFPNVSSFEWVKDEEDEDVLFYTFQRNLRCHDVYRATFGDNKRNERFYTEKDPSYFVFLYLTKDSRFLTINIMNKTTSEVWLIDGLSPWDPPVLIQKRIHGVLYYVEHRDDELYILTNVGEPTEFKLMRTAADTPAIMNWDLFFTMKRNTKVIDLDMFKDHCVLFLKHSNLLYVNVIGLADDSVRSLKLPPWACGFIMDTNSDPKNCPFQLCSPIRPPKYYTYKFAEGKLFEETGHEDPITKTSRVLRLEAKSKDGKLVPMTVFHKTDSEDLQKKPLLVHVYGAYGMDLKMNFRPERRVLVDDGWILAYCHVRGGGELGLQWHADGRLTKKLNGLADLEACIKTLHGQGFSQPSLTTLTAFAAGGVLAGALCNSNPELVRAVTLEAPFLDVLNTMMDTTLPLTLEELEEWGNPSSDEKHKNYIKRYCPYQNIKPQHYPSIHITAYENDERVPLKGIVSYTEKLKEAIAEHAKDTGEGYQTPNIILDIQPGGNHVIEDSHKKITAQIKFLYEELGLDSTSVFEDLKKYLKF


Experiments:
[1] = molecular target: recombinant PREPLs p.Arg647Gln (residues 90-727) (human) (UniProt Q4J6C6); assay: SEC
[2] = molecular target: PREPLS, wild type (MAPPIT bait) (human) (UniProt Q4J6C6); assay: two-hybrid
[3] = molecular target: PREPL p.Ser559Ala, catalytically inactive (MAPPIT bait) (human) (UniProt Q4J6C6); assay: two-hybrid
[4] = molecular target: recombinant PREPLs p.Arg243Cys (residues 90-727) (human) (UniProt Q4J6C6); assay: SEC
[5] = molecular target: PREPL p.Arg647Gln (MAPPIT bait) (human) (UniProt Q4J6C6); assay: two-hybrid
[6] = molecular target: PREPL p.Arg243Cys (MAPPIT bait) (human) (UniProt Q4J6C6); assay: two-hybrid
[7] = molecular target: T1, recombinant PREPLs p.Ser559Ala, …; assay: SEC; settings: remark: other sources report otherwise

| Molecule | binding [2] | binding [3] | also measured |
| --- | --- | --- | --- |
| recombinant PREPLs p.Arg647Gln (residues 90-727) (from UniProt Q4J6C6 90-727) (enzyme) |  |  | binding [1]: no binding |
| ARPC5L (from UniProt Q9BPX5 1-153) | binds | binds |  |
| DCTN5 (from UniProt Q9BTE1 1-182) | binds |  |  |
| recombinant PREPLs p.Arg243Cys (residues 90-727) (from UniProt Q4J6C6 90-727) (enzyme) |  |  | binding [4]: no binding |
| NDUFV2 (from UniProt P19404 33-249) | binds | binds |  |
| DISC1 (protein, UniProt Q9NRI5 1-854) MPGGGPQGAPAAAGGGGVSHRAGSRDCLPPAACFRRRRLARRPGYMRSSTGPGIGFLSPAVGTLFRFPGGVSGEESHHSESRARQCGLDSRGLLVRSPVSKSAAAPTVTSVRGTSAHFGIQLRGGTRLPDRLSWPCGPGSAGWQQEFAAMDSSETLDASWEAACSDGARRVRAAGSLPSAELSSNSCSPGCGPEVPPTPPGSHSAFTSSFSFIRLSLGSAGERGEAEGCPPSREAESHCQSPQEMGAKAASLDGPHEDPRCLSRPFSLLATRVSADLAQAARNSSRPERDMHSLPDMDPGSSSSLDPSLAGCGGDGSSGSGDAHSWDTLLRKWEPVLRDCLLRNRRQMEVISLRLKLQKLQEDAVENDDYDKAETLQQRLEDLEQEKISLHFQLPSRQPALSSFLGHLAAQVQAALRRGATQQASGDDTHTPLRMEPRLLEPTAQDSLHVSITRRDWLLQEKQQLQKEIEALQARMFVLEAKDQQLRREIEEQEQQLQWQGCDLTPLVGQLSLGQLQEVSKALQDTLASAGQIPFHAEPPETIRSLQERIKSLNLSLKEITTKVCMSEKFCSTLRKKVNDIETQLPALLEAKMHAISGNHFWTAKDLTEEIRSLTSEREGLEGLLSKLLVLSSRNVKKLGSVKEDYNRLRREVEHQETAYETSVKENTMKYMETLKNKLCSCKCPLLGKVWEADLEACRLLIQSLQLQEARGSLSVEDERQMDDLEGAAPPIPPRLHSEDKRKTPLKVLEEWKTHLIPSLHCAGGEQKEESYILSAELGEKCEDIGKKLLYLEDQLHTAIHSHDEDLIQSLRRELQMVKETLQAMILQLQPAKEAGEREAAASCMTAGVHEAQA | binds |  | binding [5]: binds |
| STX5 (protein, UniProt Q13190 1-355) MIPRKRYGSKNTDQGVYLGLSKTQVLSPATAGSSSSDIAPLPPPVTLVPPPPDTMSCRDRTQEFLSACKSLQTRQNGIQTNKPALRAVRQRSEFTLMAKRIGKDLSNTFAKLEKLTILAKRKSLFDDKAVEIEELTYIIKQDINSLNKQIAQLQDFVRAKGSQSGRHLQTHSNTIVVSLQSKLASMSNDFKSVLEVRTENLKQQRSRREQFSRAPVSALPLAPNHLGGGAVVLGAESHASKDVAIDMMDSRTSQQLQLIDEQDSYIQSRADTMQNIESTIVELGSIFQQLAHMVKEQEETIQRIDENVLGAQLDVEAAHSEILKYFQSVTSNRWLMVKIFLILIVFFIIFVVFLA | binds | binds |  |
| recombinant PREPLs p.Ser559Ala, catalytically inactive (residues 90-727), Q4J6C6 90-727 (enzyme) MDAFEKVRTKLETQPQEEYEIINVEVKHGGFVYYQEGCCLVRSKDEEADNDNYEVLFNLEELKLDQPFIDCIRVAPDEKYVAAKIRTEDSEASTCVIIKLSDQPVMEASFPNVSSFEWVKDEEDEDVLFYTFQRNLRCHDVYRATFGDNKRNERFYTEKDPSYFVFLYLTKDSRFLTINIMNKTTSEVWLIDGLSPWDPPVLIQKRIHGVLYYVEHRDDELYILTNVGEPTEFKLMRTAADTPAIMNWDLFFTMKRNTKVIDLDMFKDHCVLFLKHSNLLYVNVIGLADDSVRSLKLPPWACGFIMDTNSDPKNCPFQLCSPIRPPKYYTYKFAEGKLFEETGHEDPITKTSRVLRLEAKSKDGKLVPMTVFHKTDSEDLQKKPLLVHVYGAYGMDLKMNFRPERRVLVDDGWILAYCHVRGGGELGLQWHADGRLTKKLNGLADLEACIKTLHGQGFSQPSLTTLTAFAAGGVLAGALCNSNPELVRAVTLEAPFLDVLNTMMDTTLPLTLEELEEWGNPSSDEKHKNYIKRYCPYQNIKPQHYPSIHITAYENDERVPLKGIVSYTEKLKEAIAEHAKDTGEGYQTPNIILDIQPGGNHVIEDSHKKITAQIKFLYEELGLDSTSVFEDLKKYLKF |  |  | binding [7]: no binding |

More lines, main results first:

| binding [2] | binding [3] | Molecule | also measured |
| --- | --- | --- | --- |
| binds | binds | MDM1 (protein, UniProt Q8TC05 1-714) MPVRFKGLSEYQRNFLWKKSYLSESCNSSVGRKYPWAGLRSDQLGITKEPSFISKRRVPYHDPQISKSLEWNGAISESNVVASPEPEAPETPKSQEAEQKDVTQERVHSLEASRVPKRTRSHSADSRAEGASDVENNEGVTNHTPVNENVELEHSTKVLSENVDNGLDRLLRKKAGLTVVPSYNALRNSEYQRQFVWKTSKETAPAFAANQVFHNKSQFVPPFKGNSVIHETEYKRNFKGLSPVKEPKLRNDLRENRNLETVSPERKSNKIDDRLKLEAEMELKDLHQPKRKLTPWKHQRLGKVNSEYRAKFLSPAQYLYKAGAWTHVKGNMPNQVKELREKAEFYRKRVQGTHFSRDHLNQILSDSNCCWDVSSTTSSEGTVSSNIRALDLAGDPTSHKTLQKCPSTEPEEKGNIVEEQPQKNTTEKLGVSAPTIPVRRRLAWDTENTSEDVQKQPGEKEEEDDNEEEGDRKTGKQAFMGEQEKLDVREKSKADKMKEGSDSSVSSEKGGRLPTPKLRELGGIQRTHHDLTTPAVGGAVLVSPSKMKPPAPEQRKRMTSQDCLETSKNDFTKKESRAVSLLTSPAAGIKTVDPLPLREDSEDNIHKFAEATLPVSKIPKYPTNPPGQLPSPPHVPSYWHPSRRIQGSLRDPEFQHNVGKARMNNLQLPQHEAFNDEDEDRLSEISARSAASSLRAFQTLARAKKRKENFWGKT |  |
| binds |  | UBL5 (protein, UniProt Q9BZL1 1-73) MIEVVCNDRLGKKVRVKCNTDDTIGDLKKLIAAQTGTRWNKIVLKKWYTIFKDHVSLGDYEIHDGMNLELYYQ | binding [6]: binds; binding [5]: binds |
